Reference: publication PMC10108010, “Fluorogenic Granzyme A Substrates Enable Real‐Time Imaging of Adaptive Immune Cell Activity” (Angewandte Chemie (International Ed. in English), 2023)
Structures were worked out from names or drawings and are uncertain.

By UniProt entry, the sequences of proteins in these tests, tags left out. Residues count along the entry.
UniProt P12544, 29-262 limits assumed: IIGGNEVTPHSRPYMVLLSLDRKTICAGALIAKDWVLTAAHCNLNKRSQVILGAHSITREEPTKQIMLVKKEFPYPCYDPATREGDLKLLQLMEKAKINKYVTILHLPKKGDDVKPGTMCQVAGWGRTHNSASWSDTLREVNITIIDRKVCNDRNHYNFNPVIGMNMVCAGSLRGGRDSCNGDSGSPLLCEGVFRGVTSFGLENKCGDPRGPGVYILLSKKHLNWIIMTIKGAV

Assays:
NK-92 cells = experiment: Live-cell confocal microscopy of NK-92 cells; type: cell-based, human; conditions: compound 9 5 μM, 1 h; Z-stack confocal, 3 experiments
Procedure: Figure S9. Brightfield and fluorescence confocal microscopy merged images of live NK-92 cells upon incubation with compound 9. Representative microscopy images from 3 independent experiments of live NK-92 cells upon incubation with […]
dichloroisocoumarin (5 µM) was used as a GzmA inhibitor for 2 h prior to labeling.
(§1) 5.0) prior to the enzyme assays.
(§2) All the tubes were incubated
(§3) NK- 92 cell inhibition and imaging. […]
(§4) Microsystems) and qualitatively analysed using Fiji.

hGzmA [1] = target: T1, hGzmA (Homo sapiens, UniProt P12544); experiment: HPLC-MS analysis of reaction products of compound 9 with hGzmA; conditions: compound 9 20 µM, hGzmA 20 nM, Tris buffer (pH 8), 37 °C, 90 min; traces at 650 nm
Procedure: Figure S2. HPLC-MS traces of compound 9 before and after reaction with
hGzmA. Compound 9 (20 µM) was incubated with hGzmA (20 nM) in Tris buffer (pH
8) at 37°C for 90 min. HPLC traces were monitored at 650 nm before and after the
reaction. m/z (calc. for compound 9): 971.5, m/z (calc. for hemicyanine): 384.2.
(1 picture or pasted object on this page, not shown here)

[2] = system: active hGzmA compared to pro-hGzmA, GzmB, GzmK, caspases, HNE, MMPs, cath B and cath L; experiment: Protease selectivity screen of compound 9; conditions: compound 9 20 μM, proteases 20 nM, 37 °C, 60 min; fluorescence fold increase, n=3
[3] = system: active GzmA secreted by NK-92 cells; experiment: Detection of active GzmA in supernatants of stimulated NK-92 cells; type: cell-based, human; conditions: NK-92 stimulated with PMA and ionomycin; supernatant + compound 9 for 1 h; 725 nm, n=3
Source text: Encouraged by the high reactivity of compound 9, we evaluated its potential application to detect active GzmA secreted by immune cells. NK cell‐based therapies are regarded as potential anticancer treatments due to their ability to secrete granzymes to the extracellular space and cause cytotoxicity in cancer cells.[24] […] To test the utility of compound 9 to measure active GzmA in cell supernatants, we performed degranulation assays in human NK‐92 cells (e.g., a patient‐derived cell line that expresses higher levels of GzmA than healthy NK cells)[25] and also tested GzmA‐negative cells (e.g., HaCaT keratinocytes, Figure S8). NK‐92 cells were stimulated with […] and ionomycin (Figure 5).[26] Cell supernatants were collected and incubated with compound 9 for 1 h, followed by spectroscopic measurements. […] Previous reports indicate that granzyme activity can be detected inside NK‐92 cells[[11b]] and that granzymes can be found within activated immune cells due to intracellular granular leakage,[27] even though granzyme activity is known to be reduced in acidic granules. To study this observation, we performed Z‐stack live‐cell confocal microscopy in NK‐92 cells after incubation with compound 9.
as §1, §2, §3, §4

hGzmA [4] = target: T1, hGzmA; experiment: Michaelis-Menten kinetics with hGzmA
Procedure: (§5) Figure 4 In vitro characterization of compound 9 in response to hGzmA. a) Time‐lapse fluorescence emission (725 nm) of compound 9 (20 μM) in the absence (black circles) or presence (red circles) of hGzmA (20 nM) in Tris buffer (pH 8) at 37 °C. Data as means±SD (n=3). Inset) Kinetic constants of compound 9 after reaction with hGzmA calculated using the Michaelis–Menten equation. Data presented as means±SD (n=3). b) Fluorescence spectra of compound 9 (20 μM) after incubation with hGzmA (20 nM, red) and in the absence (black) or presence of 3,4‐dichloroisocoumarin (100 μM, grey) in Tris buffer (pH 8). Representative plots from 3 independent experiments. c) Fluorescence fold increase of compound 9 (20 μM) after incubation with different proteases (all at 20 nM) at 37 °C for 60 min. Data presented as means±SD (n=3) and p values obtained from one‐way ANOVA (**** for p<0.0001). Inset) Chemical structure of the commercial Z‐FR‐AMC. d) Fluorescence enhancement of compound 9 and Z‐FR‐AMC (both at 20 μM) after incubation with hGzmA (20 nM) in Tris buffer (pH 8) at 37 °C for 60 min. Data presented as means±SD (n=3). TEXT PRINTED IN THE PICTURE: (a) 9 + hGzmA: Km: 6.9±1.0×10^-6 M; kcat: 0.26±0.04 s^-1; kcat/Km: 3.7±0.2×10^4 M^-1s^-1 […]
Next, we determined the kinetic properties of compound 9 as a substrate for hGzmA using Michaelis–Menten's equation (Figures 4 and S4). In these experiments, we measured the maximum rate (v max), as well as the Michaelis (K m) and the catalytic rate (k cat) constants. […] To the best of our knowledge, these are the highest k cat/K m values reported to date for NIR GzmA substrates and outperform previously reported probes.[17] This improvement in reactivity can be partially attributed to the enhanced accessibility of the scissile bond in compound 9 due to the addition of the 4‐aminobenzyl alcohol spacer. […] Finally, we also compared the performance of compound 9 to the commercial substrate Z‐FR‐AMC (Figure 4).
Figure S3. Limit of detection of compound 9 for hGzmA. The hGzmA […]
assays were performed with com pound 9 (20 µM) in Tris buffer (pH 8) at 37 °C. Data […]
presented as means±SD (n=3). LoD = 472 pM.
Figure S4. Kinetics of the compound 9 upon reaction with hGzmA. a) […]
Representative (from 3 independent experiments) time- lapse fluorescence emission […]
derived from the reaction of hGzmA (20 nM) and compound 9 at different […]
concentrations [2.5 μM, 5 μM, 7.5 μM, 10 μM, 15 μM, 20 μM]. b) Initial rates (V0) were […]
plotted against different concentrations of compound 9 (2.5, 5, 7.5, 10, 15 and 20 μM) […]
when incubated with hGzmA (20 nM) in Tris buffer (pH 8) at 37°C . […]
(§6) assays were performed in MES buffer (25 mM MES, 5 mM DTT, pH 6.0). […] Proteolytic activity was determined by calculating the fold change in fluorescence signal over background signal. […]

hGzmA [5] = target: T1, hGzmA; experiment: Fluorogenic response to active recombinant hGzmA (time-lapse emission, spectra, fold increase)
Procedure: as §5
(§7) nebuliser gas. Data acquisition was performed with MassLynx software. 1H-NMR spectra were recorded using Bruker Avance III spectrometer operated at 500 MHz.
(§8) 13C-NMR spectra were recorded using Bruker Avance operated at 126 MHz. Chemical shifts were reported in ppm on the δ scale relative to a residual solvent (CDCl 3: δ = […]
(§9) 13C-NMR). Multiplicities are referred by the following abbreviations: s = singlet, d = doublet, t = triplet, dd = doublet doublets, ddd = double double doublet, dt = double triplet, q = quartet and m = multiplet.
(§10) Photophysical calculations. Spectroscopic data were recorded on a Synergy HT spectrophotometer (Biotek). Compounds were dissolved at the indicated concentrations and spectra were recorded at 37 °C.
In vitro characterization assays. Enzymatic assays were run in a 384-well format in PCR opaque microplates (Thermo Scientific). All experiments were performed at least in triplicate. hGzmA assays were performed in Tris buffer (0.05 M TRIS pH 8.0 containing 0.15 M NaCl and 0.01% Triton X-100). mGzmA assays were performed in Tris buffer (0.1 M TRIS, pH 8.5). hGzmB assays were performed in Tris buffer (0.05 M Tris-HCl, 0.1 M NaCl, pH 7.4). Human neutrophil elastase assays were performed in Tris buffer (0.05 M Tris, 1 M NaCl, 0.01% m/v Triton X-100, pH 8). hGzmK assays were performed in Tris buffer (0.05 M Tris, 1 M NaCl, 0.05% m/v Triton X-100, pH 7.5). […]
as §6

hGzmA [6] = target: T1, hGzmA; experiment: Relative fluorescence quantum yield before/after incubation with hGzmA; conditions: standard IR-125, Tris buffer (pH 8)
Procedure: Figure 3 Synthetic scheme for the preparation of fluorogenic substrates for hGzmA. Relative fluorescence quantum yields (standard: IR‐125) of the compound 9 before and after incubation with hGzmA (20 nM) in Tris buffer (pH 8). Pictograms of solutions of the compound 9 (50 μM) in the absence (left) or presence (right) of hGzmA under 650 nm excitation. TEXT PRINTED IN THE PICTURE: 9: no hGzmA QY < 2%; + hGzmA QY = 30% […]
as §7, §8, §9, §10
In vitro characterization assays. Enzymatic assays were run in a 384-well format in PCR opaque microplates (Thermo Scientific). […]

[7] = Emission wavelength / spectral properties; type: physicochemical; conditions: comparison of compound 9 and Z-FR-AMC
[8] = hGzmA 20 nM, compound 9 2.5-20 μM, Tris buffer (pH 8), 37 °C, means±SD, n=3

CC[C@H](C)[C@H](NC(C)=O)C(=O)NCC(=O)N[C@@H](CC(N)=O)C(=O)N[C@@H](CCCNC(=N)N)C(=O)Nc1ccc(COc2ccc3c(c2)OC2=C(/C=C/C4=[N+](C)c5ccccc5C4(C)C)CCCC2=C3)cc1
intracellular fluorescence (in words) (NK-92 cells): bright intracellular fluorescence in NK‐92 cells
cleavage site (HPLC-MS) (hGzmA [1]): enzymatic cleavage happens after the Arg residue
selectivity over other proteases (in words) [2]: reacting preferentially with active hGzmA compared to other proteases
fluorescence of cell supernatants (in words) [3]: significantly brighter fluorescence in supernatants from stimulated NK‐92 cells when compared to non‐stimulated cells
kcat/Km (hGzmA [4]; hGzmA 20 nM, Tris buffer (pH 8), 37 °C, means±SD, n=3 (figure)): 3.7±0.2×10^4 M^-1s^-1
Km (hGzmA [4]; [8]): 6.9 µM
kcat (hGzmA [4]; [8]): 0.26 ± 0.04 s⁻¹
kcat/Km (hGzmA [4]; hGzmA, Michaelis-Menten, rounded): around 37 000 M^−1 s^−1
fluorescence increase relative to Z-FR-AMC (hGzmA [5]; both at 20 μM, hGzmA 20 nM, Tris buffer (pH 8), 37 °C, 60 min, n=3): 18 fold
response time and signal stability (in words) (hGzmA [5]; compound 9 20 μM, hGzmA 20 nM, Tris buffer (pH 8), 37 °C): response within minutes and a stable fluorescence readout for several hours
fluorescence increase after enzymatic reaction (hGzmA [5]; compound 9 20 μM, hGzmA 20 nM, Tris buffer (pH 8), 37 °C, 725 nm, n=3): around 20 fold
emission after enzymatic reaction (hGzmA [5]; compound 9 with active recombinant hGzmA, NIR emission): > 700 nm
relative fluorescence quantum yield, + hGzmA (hGzmA [6]; after incubation with hGzmA (20 nM)): 30%
relative fluorescence quantum yield, no hGzmA (hGzmA [6]; before incubation with hGzmA): < 2%
emission wavelength [7]: ≈ 720 nm
